Assay results taken from the supplement of paper PMC12067093, “Discovery and optimisation of a covalent ligand for TRIM25 and its application to targeted protein ubiquitination” (Chemical Science, 2025).
Some of the results follow.

Sequences of proteins named here, by UniProt entry; tags and fusion partners are left off. A change or cut given only in a name is not applied to a line headed by its entry.
UniProt P31146: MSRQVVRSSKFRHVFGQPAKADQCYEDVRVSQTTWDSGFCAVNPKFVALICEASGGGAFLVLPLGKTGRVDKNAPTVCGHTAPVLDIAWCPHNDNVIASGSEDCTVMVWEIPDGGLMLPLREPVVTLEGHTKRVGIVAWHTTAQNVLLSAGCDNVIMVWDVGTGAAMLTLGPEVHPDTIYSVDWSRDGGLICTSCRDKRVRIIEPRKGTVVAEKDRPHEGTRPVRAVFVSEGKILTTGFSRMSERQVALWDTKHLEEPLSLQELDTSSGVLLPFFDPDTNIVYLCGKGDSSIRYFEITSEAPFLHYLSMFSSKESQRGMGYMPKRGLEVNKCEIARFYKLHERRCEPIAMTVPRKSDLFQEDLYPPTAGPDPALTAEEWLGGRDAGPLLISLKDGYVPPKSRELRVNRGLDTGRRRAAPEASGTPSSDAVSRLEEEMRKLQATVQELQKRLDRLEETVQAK
UniProt P21291: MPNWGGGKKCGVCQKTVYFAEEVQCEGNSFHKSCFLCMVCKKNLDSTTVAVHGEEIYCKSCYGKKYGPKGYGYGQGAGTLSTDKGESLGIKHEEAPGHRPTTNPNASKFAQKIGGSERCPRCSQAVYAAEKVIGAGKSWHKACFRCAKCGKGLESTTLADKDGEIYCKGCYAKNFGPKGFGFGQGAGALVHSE
UniProt O15194: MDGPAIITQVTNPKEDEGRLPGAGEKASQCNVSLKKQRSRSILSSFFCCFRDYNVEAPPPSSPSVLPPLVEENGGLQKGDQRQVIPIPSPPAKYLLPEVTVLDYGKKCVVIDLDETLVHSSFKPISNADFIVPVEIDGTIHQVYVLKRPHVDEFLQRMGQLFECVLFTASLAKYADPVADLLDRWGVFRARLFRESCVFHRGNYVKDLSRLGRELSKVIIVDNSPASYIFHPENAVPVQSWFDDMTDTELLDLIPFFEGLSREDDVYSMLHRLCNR
UniProt P55060: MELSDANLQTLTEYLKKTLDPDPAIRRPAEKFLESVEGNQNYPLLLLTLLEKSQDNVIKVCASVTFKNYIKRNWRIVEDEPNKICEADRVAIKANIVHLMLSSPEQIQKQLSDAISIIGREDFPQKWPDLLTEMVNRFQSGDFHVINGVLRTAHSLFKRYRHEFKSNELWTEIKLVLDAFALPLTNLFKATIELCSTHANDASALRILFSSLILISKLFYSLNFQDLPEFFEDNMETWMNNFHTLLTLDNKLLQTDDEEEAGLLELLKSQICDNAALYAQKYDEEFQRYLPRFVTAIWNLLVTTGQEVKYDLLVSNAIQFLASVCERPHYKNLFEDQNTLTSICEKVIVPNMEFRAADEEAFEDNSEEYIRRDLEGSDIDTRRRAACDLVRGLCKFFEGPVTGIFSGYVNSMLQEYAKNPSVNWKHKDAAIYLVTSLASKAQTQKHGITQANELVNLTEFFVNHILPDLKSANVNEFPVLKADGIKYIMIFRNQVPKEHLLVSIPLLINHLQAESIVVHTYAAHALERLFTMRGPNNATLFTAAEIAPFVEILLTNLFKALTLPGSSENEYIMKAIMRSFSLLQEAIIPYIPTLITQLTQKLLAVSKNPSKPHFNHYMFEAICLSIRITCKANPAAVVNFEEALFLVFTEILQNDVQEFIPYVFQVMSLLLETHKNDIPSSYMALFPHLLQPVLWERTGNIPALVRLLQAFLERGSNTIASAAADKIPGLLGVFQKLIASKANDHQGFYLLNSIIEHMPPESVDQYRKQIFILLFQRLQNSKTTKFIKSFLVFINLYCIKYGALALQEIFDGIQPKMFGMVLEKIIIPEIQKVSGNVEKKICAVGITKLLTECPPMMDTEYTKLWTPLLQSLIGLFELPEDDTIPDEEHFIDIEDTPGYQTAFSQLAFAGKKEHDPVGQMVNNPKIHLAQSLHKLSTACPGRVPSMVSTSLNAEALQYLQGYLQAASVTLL
UniProt Q9H0L4: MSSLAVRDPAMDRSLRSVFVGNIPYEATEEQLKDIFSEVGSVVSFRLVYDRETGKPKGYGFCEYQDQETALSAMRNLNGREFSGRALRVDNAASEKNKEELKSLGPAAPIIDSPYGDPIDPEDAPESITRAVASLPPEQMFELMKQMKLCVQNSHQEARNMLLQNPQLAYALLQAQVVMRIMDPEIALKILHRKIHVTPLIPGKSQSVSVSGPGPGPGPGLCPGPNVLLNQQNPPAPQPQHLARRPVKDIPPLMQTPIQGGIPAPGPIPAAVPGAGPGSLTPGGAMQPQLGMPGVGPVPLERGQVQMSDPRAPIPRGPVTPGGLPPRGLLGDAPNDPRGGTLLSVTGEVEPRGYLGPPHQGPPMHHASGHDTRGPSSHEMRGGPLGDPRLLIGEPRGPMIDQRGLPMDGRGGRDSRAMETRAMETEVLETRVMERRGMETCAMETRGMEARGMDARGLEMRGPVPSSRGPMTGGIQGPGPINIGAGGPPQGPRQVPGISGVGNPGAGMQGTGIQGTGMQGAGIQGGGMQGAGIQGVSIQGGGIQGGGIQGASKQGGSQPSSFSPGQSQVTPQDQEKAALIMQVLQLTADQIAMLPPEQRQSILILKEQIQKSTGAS
UniProt P49711: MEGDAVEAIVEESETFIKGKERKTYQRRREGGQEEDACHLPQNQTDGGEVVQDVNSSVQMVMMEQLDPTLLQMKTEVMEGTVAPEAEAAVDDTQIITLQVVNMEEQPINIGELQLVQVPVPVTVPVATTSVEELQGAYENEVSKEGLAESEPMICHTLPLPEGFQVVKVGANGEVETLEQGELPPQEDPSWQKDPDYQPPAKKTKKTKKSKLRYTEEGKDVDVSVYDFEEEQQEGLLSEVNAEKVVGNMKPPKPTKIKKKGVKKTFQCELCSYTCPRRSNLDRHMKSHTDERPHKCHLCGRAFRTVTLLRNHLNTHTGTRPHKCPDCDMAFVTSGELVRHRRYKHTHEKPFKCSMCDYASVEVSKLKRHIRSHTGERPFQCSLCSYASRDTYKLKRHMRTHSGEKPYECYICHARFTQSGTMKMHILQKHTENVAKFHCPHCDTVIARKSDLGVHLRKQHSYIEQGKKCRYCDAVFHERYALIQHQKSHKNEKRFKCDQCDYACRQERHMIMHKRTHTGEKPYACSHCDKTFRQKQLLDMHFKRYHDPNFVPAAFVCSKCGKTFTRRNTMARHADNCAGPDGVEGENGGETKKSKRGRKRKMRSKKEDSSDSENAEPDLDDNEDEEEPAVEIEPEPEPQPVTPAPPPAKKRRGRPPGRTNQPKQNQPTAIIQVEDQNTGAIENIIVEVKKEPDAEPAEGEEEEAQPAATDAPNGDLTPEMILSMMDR
UniProt O75534: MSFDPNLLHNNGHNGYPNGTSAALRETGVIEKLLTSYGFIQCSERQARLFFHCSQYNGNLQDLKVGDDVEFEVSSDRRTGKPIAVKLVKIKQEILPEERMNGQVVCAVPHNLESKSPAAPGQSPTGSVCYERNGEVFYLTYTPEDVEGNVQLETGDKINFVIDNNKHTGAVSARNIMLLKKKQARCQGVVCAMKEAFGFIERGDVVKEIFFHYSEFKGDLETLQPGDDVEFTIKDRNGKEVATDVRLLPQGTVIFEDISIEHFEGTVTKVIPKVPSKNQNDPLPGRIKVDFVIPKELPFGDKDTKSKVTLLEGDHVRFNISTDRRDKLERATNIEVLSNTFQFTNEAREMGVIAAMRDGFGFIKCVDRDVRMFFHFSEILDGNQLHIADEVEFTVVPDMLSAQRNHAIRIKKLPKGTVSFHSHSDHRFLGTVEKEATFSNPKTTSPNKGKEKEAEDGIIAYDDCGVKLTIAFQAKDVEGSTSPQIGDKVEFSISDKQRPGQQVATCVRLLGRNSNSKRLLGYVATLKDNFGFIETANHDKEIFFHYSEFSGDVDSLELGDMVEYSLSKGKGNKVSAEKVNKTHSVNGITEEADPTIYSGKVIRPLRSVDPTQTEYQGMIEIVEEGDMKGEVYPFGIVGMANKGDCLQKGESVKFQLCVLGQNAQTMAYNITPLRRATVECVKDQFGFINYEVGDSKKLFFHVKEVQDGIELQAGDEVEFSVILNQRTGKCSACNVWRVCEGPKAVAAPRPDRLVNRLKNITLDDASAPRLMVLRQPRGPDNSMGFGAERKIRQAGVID
UniProt Q12996: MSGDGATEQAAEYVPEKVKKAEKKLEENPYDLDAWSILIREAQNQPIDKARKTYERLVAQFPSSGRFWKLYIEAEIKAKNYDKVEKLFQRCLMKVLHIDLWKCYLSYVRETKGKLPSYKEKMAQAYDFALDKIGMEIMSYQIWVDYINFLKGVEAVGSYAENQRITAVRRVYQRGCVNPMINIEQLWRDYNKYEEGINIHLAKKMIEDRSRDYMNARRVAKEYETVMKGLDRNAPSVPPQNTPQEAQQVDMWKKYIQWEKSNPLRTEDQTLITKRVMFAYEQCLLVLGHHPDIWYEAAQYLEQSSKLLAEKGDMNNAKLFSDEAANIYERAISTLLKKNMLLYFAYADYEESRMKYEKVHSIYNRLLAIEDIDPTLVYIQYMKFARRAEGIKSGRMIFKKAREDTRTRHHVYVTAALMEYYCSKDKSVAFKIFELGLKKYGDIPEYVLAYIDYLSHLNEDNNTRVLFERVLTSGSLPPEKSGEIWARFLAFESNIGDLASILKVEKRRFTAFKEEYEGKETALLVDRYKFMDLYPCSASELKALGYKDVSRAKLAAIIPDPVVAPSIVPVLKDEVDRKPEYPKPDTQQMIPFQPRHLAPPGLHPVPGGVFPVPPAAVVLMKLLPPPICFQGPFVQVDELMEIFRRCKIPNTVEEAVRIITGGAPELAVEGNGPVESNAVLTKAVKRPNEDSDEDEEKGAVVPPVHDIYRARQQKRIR
UniProt Q05048: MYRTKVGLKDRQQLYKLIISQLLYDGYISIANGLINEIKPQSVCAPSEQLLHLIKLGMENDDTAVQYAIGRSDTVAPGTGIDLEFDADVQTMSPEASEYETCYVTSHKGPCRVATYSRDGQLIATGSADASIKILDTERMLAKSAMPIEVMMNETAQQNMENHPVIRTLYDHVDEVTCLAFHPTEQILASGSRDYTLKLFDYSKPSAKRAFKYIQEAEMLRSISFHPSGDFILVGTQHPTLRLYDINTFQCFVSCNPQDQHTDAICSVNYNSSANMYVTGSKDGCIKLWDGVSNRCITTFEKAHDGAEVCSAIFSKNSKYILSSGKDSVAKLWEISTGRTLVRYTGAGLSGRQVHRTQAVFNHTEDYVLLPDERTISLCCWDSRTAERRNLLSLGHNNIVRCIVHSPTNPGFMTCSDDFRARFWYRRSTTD
UniProt P17812: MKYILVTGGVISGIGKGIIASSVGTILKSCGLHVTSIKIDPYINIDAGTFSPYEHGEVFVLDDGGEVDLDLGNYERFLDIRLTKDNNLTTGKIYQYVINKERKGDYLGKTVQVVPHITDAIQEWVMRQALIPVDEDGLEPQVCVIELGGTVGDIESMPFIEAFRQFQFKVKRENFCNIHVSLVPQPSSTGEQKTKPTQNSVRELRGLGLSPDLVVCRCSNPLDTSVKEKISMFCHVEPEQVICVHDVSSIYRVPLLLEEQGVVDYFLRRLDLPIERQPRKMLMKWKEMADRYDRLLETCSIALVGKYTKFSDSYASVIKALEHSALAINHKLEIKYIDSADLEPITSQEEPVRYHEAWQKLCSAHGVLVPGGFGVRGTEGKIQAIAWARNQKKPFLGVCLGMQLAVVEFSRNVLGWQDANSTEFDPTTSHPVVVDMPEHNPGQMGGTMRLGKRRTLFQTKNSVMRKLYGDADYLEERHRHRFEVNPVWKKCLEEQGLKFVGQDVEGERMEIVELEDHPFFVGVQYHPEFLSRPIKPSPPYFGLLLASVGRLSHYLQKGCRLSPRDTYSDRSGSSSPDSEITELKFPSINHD
UniProt O75718: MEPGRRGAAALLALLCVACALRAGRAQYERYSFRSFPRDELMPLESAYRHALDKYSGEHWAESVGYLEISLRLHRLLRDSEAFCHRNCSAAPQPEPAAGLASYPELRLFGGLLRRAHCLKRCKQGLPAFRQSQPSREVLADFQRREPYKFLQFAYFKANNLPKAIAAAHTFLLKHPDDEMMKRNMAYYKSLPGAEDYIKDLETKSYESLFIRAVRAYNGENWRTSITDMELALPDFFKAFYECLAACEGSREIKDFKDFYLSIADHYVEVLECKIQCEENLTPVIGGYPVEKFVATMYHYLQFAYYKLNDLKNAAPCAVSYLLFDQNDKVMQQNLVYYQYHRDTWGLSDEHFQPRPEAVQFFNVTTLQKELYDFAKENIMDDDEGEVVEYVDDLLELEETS
UniProt P14854, whole entry, looked up: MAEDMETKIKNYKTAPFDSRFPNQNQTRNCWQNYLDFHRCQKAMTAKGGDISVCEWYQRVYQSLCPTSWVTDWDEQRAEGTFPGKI

Compound: Cc1cc(ccc1-c1ccccc1)C(=O)N1CCCN(CC1)C(=O)CCl [compound 10]
Assay: probe-labelled cysteine peptide fold change vs DMSO (competition) (log2 fold change); higher = less target engagement (more negative = stronger competition)
Conditions: THP-1, incubation time: 4 h
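Also: competitive profiling in live THP-1 cells: cysteine peptides tagged with an iodoacetamide desthiobiotin (IA-DTB) probe, intensity after compound treatment relative to DMSO-treated cells.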

| Target | probe-labelled cysteine peptide fold change (10 µM) | probe-labelled cysteine peptide fold change (50 µM) |
| --- | --- | --- |
| CPSF1_Q10570_149_CAAMLVYGTR (UniProt Q10570) | 0.0731 | 0.0592 |
| CORO1A_P31146_40_VSQTTWDSGFCAVNPK (UniProt P31146) | -0.0511 | -0.00847 |
| CSRP1_P21291_34+37_SCFLCMVCK (UniProt P21291) | -0.0813 | -0.307 |
| CTDSPL_O15194_197_ESCVFHR (UniProt O15194) | -0.0178 | 0.0125 |
| CTNNBL1_Q8WYA6_320_RHNPSTAEEQEMMENLFDSLCSCLMLSSNR (UniProt Q8WYA6) | 0.342 | -0.13 |
| CSE1L_P55060_325_YDLLVSNAIQFLASVCERPHYK (UniProt P55060) | 0.202 | 0.0501 |
| CSE1L_P55060_272_SQICDNAALYAQK (UniProt P55060) | 0.168 | 0.267 |
| CSTF2T_Q9H0L4_441_RGMETCAMETR (UniProt Q9H0L4) | 0.00912 | -0.158 |
| CSRP1_P21291_25_TVYFAEEVQCEGNSFHK (UniProt P21291) | 2.29e-05 | -0.0826 |
| CTCF_P49711_472_YCDAVFHER (UniProt P49711) | -0.0978 | -0.0657 |
| CSDE1_O75534_506_QRPGQQVATCVR (UniProt O75534) | -0.0375 | -0.267 |
| CSTF3_Q12996_176_GCVNPMINIEQLWR (UniProt Q12996) | 0.034 | 0.192 |
| CSTF1_Q05048_178_TLYDHVDEVTCLAFHPTEQILASGSR (UniProt Q05048) | 0.12 | 0.234 |
| CTPS1_P17812_218_CSNPLDTSVK (UniProt P17812) | 0.165 | -0.198 |
| CRTAP_O75718_243_AFYECLAACEGSR (UniProt O75718) | -0.0148 | 0.256 |
| CTDP1_Q9Y5B0_114_LEGCSHPVVMK (UniProt Q9Y5B0) | 0.0561 | 0.106 |
| COX6B1_P14854_30_NCWQNYLDFHR (UniProt P14854) | -0.154 | -0.0245 |
| CORO7_P57737_691_IVWVCDGR (UniProt P57737) | 0.135 | -0.245 |
| CTCF_P49711_577_HADNCAGPDGVEGENGGETK (UniProt P49711) | -0.136 | 0.353 |
| CORO1C_Q9ULV4_420_CDLISIPK (UniProt Q9ULV4) | -0.336 | -0.532 |

Single values from the results shown.
CSRP1_P21291_34+37_SCFLCMVCK (UniProt P21291) – probe-labelled cysteine peptide fold change (50 µM): -0.307
CSE1L_P55060_325_YDLLVSNAIQFLASVCERPHYK (UniProt P55060) – probe-labelled cysteine peptide fold change (10 µM): 0.202
